# Measurements: PubChem BioAssay (Tox21)
# Sequences of proteins named here, by UniProt entry; tags and fusion partners are left off. A change or cut given only in a name is not applied to a line headed by its entry.
# UniProt P10635, whole entry, looked up: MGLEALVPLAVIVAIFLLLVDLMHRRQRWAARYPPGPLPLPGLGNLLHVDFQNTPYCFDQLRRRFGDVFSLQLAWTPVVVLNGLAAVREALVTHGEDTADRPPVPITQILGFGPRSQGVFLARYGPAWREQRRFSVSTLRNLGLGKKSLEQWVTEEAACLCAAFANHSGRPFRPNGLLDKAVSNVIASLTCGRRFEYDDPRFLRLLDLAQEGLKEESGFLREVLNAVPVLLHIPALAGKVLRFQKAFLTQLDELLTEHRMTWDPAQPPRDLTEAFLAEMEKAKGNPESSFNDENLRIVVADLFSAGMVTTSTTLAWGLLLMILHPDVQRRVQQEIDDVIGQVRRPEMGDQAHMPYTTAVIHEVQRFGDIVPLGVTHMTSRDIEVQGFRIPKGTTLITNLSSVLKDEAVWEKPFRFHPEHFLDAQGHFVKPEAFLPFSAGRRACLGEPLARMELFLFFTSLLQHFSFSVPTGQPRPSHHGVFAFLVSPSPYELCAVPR
# UniProt P33261, whole entry, looked up: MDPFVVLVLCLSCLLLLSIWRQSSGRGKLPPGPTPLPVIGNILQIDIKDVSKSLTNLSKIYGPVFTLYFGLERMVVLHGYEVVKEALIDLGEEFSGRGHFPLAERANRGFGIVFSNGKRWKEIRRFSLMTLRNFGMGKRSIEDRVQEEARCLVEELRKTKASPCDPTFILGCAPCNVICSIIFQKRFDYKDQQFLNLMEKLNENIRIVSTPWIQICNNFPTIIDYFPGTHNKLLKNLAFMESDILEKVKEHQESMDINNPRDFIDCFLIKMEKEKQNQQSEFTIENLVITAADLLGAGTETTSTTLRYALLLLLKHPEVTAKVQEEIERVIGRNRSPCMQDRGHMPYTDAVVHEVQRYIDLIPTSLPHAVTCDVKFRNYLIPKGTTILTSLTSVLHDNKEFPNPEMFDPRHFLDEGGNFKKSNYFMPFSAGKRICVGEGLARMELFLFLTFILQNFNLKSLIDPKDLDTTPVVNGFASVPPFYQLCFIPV
# UniProt Q9R1A7: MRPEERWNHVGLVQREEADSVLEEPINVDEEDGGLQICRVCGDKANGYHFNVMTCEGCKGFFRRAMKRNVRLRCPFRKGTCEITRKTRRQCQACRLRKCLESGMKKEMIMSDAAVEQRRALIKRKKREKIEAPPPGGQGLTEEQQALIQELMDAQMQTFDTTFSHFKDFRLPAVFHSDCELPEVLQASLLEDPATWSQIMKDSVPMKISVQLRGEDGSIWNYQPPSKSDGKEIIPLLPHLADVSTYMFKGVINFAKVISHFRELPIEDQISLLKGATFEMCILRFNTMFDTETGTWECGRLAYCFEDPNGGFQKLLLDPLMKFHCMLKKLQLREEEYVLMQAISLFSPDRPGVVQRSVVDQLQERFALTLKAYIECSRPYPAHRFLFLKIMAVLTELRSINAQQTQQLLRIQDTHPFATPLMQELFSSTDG
# Where “and” joins values, the source holds several entries; their conditions need not be identical. Equal values may be shown once. This list was built around the results that the source calls inconclusive (neither active nor inactive); the mix of calls is not that of the screen. For part of these data: Potencies of inconclusive entries are doubtful fits and often do not repeat. More than one record can exist for a structure, and the calls need not agree. Calls of active or inactive are those of the source. Calls follow the shape of the dose curve; as a rule, active = well fitted curve in the direction sought with a large enough effect in the repeat runs; inconclusive = weak or mixed curves; inactive = no such curve, though single readings can be large; an effect the other way counts as inactive or inconclusive.
# What was measured:
# [1] = target: Nuclear receptor subfamily 1 group I member 2 (Homo sapiens) (UniProt O75469); assay: Human pregnane X receptor (PXR) small molecule agonists, qHTS assay (AID 1346982); also: nearly all actives have a fitted effect of over 35% in size; also: potency is read from the fitted curve at half-maximal effect; as to activation: % is scaled to controls: 0 for no effect and ±100 for the full control effect
# Procedure, shortened: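 PXR-Luc HepG2 cells (CYP3A4 promoter-driven luciferase) were seeded in medium with 5% charcoal-stripped FBS, left 5 hr at 37 C, then exposed to compounds in DMSO for 24 hr. Luminescence was read after ONE-Glo addition.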
# [2] = target: Cytochrome P450 2D6 (Homo sapiens) (UniProt P10635); assay: Cytochrome P450 Family 2 Subfamily D Member 6 (CYP2D6) small molecule antagonists: luciferase reporter qHTS assay (AID 1671196); also: nearly all actives have a fitted effect of over 50% in size; also: potency is read from the fitted curve at half-maximal effect
# Procedure, shortened: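 CYP2D6 enzyme–substrate mix was held with compound for 10 min at room temperature, then NADPH regeneration solution was added and the reaction ran 1 h at room temperature. Luciferin product was detected by luminescence after 20 min with detection reagent.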
# [3] = target: Cytochrome P450 2C19 (Homo sapiens) (UniProt P33261); assay: Cytochrome P450 Family 2 Subfamily C Member 19 (CYP2C19) small molecule antagonists: luciferase reporter qHTS assay (AID 1671197); also: nearly all actives have a fitted effect of over 65% in size; also: potency is read from the fitted curve at half-maximal effect
# Procedure, shortened: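 Relative luminescence units recorded 20 min after the detection reagent stopped a 1 h, 37C CYP2C19 reaction on proluciferin substrate, which was started by NADPH regeneration following 10 min room-temperature compound preincubation; ketoconazole positive control.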
# [4] = Caspase-3/7 induction in HepG2 cells by small molecules, qHTS cell viability counter screen (AID 1346981); also: potency is read from the fitted curve at half-maximal effect; nearly all actives have a fitted effect of over 30% in size
# Procedure, shortened: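 Wild-type HepG2 cells (2,000/well) were allowed to settle for 5 hr at 37 C, 5% CO2, then dosed with compounds in DMSO by pin transfer. After 16 hr at 37 C, CellTiter-Fluor was added and fluorescence read 1 hr later.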
# [5] = target: Nuclear receptor subfamily 1 group I member 2 (Rattus norvegicus) (UniProt Q9R1A7); assay: Rat pregnane X receptor (rPXR) activation by small molecules, qHTS assay (AID 1346983); conditions: rPXR luciferase reporter cells, One-Glo luminescence, 24 h; max activation: stronger effect = higher value; also: % is scaled to controls: 0 for no effect and ±100 for the full control effect; nearly all actives have a fitted effect of over 20% in size
# Procedure, shortened: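 Cell-based rPXR activation assay: rPXR cells, 2,000 per well, rested 5hr at 37 C, then exposed to compounds in DMSO for 24 hr at 37 C. Luciferase activity read by One-Glo luminescence after 30 min at room temperature.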
# [6] = target: Nuclear receptor subfamily 1 group I member 2 (Homo sapiens) (UniProt O75469); assay: Human pregnane X receptor (PXR) activation by small molecules, qHTS assay (AID 1346985); also: potency is read from the fitted curve at half-maximal effect; nearly all actives have a fitted effect of over 40% in size
# Procedure, shortened: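 DPX-2 cells (HepG2 co-transfected with a PXR response element and a CYP3A4-promoter luciferase construct) were seeded at 2,000 per well, rested 5 hr at 37C, then exposed to DMSO-dissolved compounds for 24 hr. Activation was read as luciferase luminescence.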
# [7] = target: Nuclear receptor subfamily 1 group I member 2 (Homo sapiens) (UniProt O75469); assay: CYP3A4 induction through human pregnane X receptor (PXR) by small molecules, qHTS assay (AID 1346984); also: potency is read from the fitted curve at half-maximal effect; nearly all actives have a fitted effect of over 40% in size
# Procedure, shortened: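 DPX-2 cells (HepG2 co-transfected with PXR and CYP3A4 promoter-luciferase) treated with compounds 24 h at 37C; luciferin-IPA CYP3A4 substrate 3uM final added for 3 h, then One-Glo; luminescence read. qHTS format.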
smiles,measurement,setting,value
S=P(N1CC1)(N1CC1)N1CC1,Potency,[1],"inconclusive: 64.4 µM [activator, single point]"
same,Potency,[2],active: 48.6 µM
O=C(CC(C(=O)OC1CCCCC1)S(=O)(=O)O)OC1CCCCC1 (stereo not given),Potency,[1],"inconclusive: 24.4 µM [activator, partial curve]"
same,Potency,[3],"inactive and inconclusive: 70.1 µM [inhibitor, single point]"
CC(O)CO (stereo not given),Potency,[1],inactive
same,Potency,[3],"inconclusive: 6.99 µM [inhibitor, single point]"
Cc1c(N(C)C)c(=O)n(-c2ccccc2)n1C,Potency,[4],"inconclusive: 27.3 µM [rising, single point]"
same,Potency,[2],"inconclusive: 30.9 µM [inhibitor, partial curve]"
same,Potency,[3],"inconclusive: 71 µM [inhibitor, single point]"
CN(C)[C@@H]1C(=O)C(C(N)=O)=C(O)[C@@]2(O)C(=O)C3=C(O)c4c(O)ccc(Cl)c4[C@@H](O)[C@H]3C[C@@H]12,Potency,[1],inactive
same,Potency,[3],"inconclusive: 3.09 µM [inhibitor, full curve, poor fit]"
Cc1cc(CCN2CCN(c3nsc4ccccc34)CC2)cc2c1NC(=O)CC2(C)C,Potency,[4],active: 61.1 µM
same,Potency,[3],active: 71 µM
Oc1c(Br)cc(Br)c2cccnc12,max activation,[5],inactive: -2.52%
same,Potency,[6],"inconclusive: 28.2 µM [activator, single point]"
same,Potency,[2],inactive
same,Potency,[3],inactive
O=CCc1ccccc1,Potency,[1],inconclusive: 61.1 µM [activator]
same,Potency,[2],inconclusive: 39.6 µM [inhibitor]
O=C(O)c1ccc2c(c1)C(=O)OC2=O,Potency,[1],"inconclusive: 24.3 µM [activator, full curve, poor fit]"
same,Potency,[2],"inconclusive: 56.4 µM [inhibitor, partial curve, poor fit]"
same,Potency,[3],inactive
COc1ccc(CN2CCN(C(c3ccc(F)cc3)c3ccc(F)cc3)CC2)c(OC)c1OC,Potency,[1],"inconclusive: 33.5 µM [activator, single point]"
same,Potency,[7],"inconclusive: 35.5 µM [activator, single point]"
same,Potency,[3],"inconclusive: 38.9 µM [inhibitor, single point]"
NCc1cccc(CN)c1,Potency,[1],"inconclusive: 70.5 µM [activator, single point] and inconclusive: 77 µM [activator, partial curve, poor fit]"
C/C=C/C=N/NC(=O)c1ccncc1,Potency,[1],"inconclusive: 33.5 µM [activator, single point]"
same,Potency,[2],"inconclusive: 30.9 µM [inhibitor, partial curve, poor fit]"
same,Potency,[3],"inconclusive: 38.9 µM [inhibitor, single point]"
CCCCNS(=O)(=O)c1ccccc1,Potency,[1],"inconclusive: 60.3 µM [activator, partial curve, poor fit] and inconclusive: 68.6 µM [activator, partial curve, poor fit]"
CCCCCCCCCCCCOCC1CO1 (stereo not given),Potency,[1],"inconclusive: 82.4 µM [activator, partial curve, poor fit]"
same,Potency,[2],"inconclusive: 63.4 µM [inhibitor, partial curve]"
same,Potency,[3],"inconclusive: 89.6 µM [inhibitor, single point]"
CC1CCCNC1 (stereo not given),Potency,[1],"inconclusive: 53.3 µM [activator, partial curve, poor fit]"
CC1=CC(=O)c2ccccc2C1=O,Potency,[1],inconclusive: 24.3 µM [activator]
same,Potency,[2],"inconclusive: 11 µM [inhibitor, partial curve]"
c1ccc(OCCOc2ccccc2)cc1,Potency,[1],active: 61.1 µM and active: 24.3 µM
CC(=O)c1ccc(S(=O)(=O)NC(=O)NC2CCCCC2)cc1,Potency,[1],inactive
same,Potency,[2],"inconclusive: 43.6 µM [inhibitor, single point]"
CN(C)c1cccc(O)c1,Potency,[1],active: 49.3 µM and active: 54.5 µM
same,Potency,[2],"inconclusive: 31.7 µM [inhibitor, partial curve]"
O=c1[nH]sc2ccccc12,Potency,[4],"inconclusive: 68.6 µM [cytotoxic, single point]"
same,Potency,[3],inactive
CCCCC(CC)CN1CN(CC(CC)CCCC)CC(C)(N)C1 (stereo not given),Potency,[1],active: 21.1 µM
CCC(C)Nc1ccc(NC(C)CC)cc1 (stereo not given),Potency,[1],"inconclusive: 1.97 µM [activator, full curve, poor fit]"

# 13 entries from above, set out differently.
smiles	measurement	setting	value
C/C=C/C=N/NC(=O)c1ccncc1	Potency	[2]	inconclusive: 30.9 µM [inhibitor, partial curve, poor fit]
same	Potency	[3]	inconclusive: 38.9 µM [inhibitor, single point]
CCCCNS(=O)(=O)c1ccccc1	Potency	[1]	inconclusive: 60.3 µM [activator, partial curve, poor fit] and inconclusive: 68.6 µM [activator, partial curve, poor fit]
CCCCCCCCCCCCOCC1CO1 (stereo not given)	Potency	[1]	inconclusive: 82.4 µM [activator, partial curve, poor fit]
same	Potency	[2]	inconclusive: 63.4 µM [inhibitor, partial curve]
same	Potency	[3]	inconclusive: 89.6 µM [inhibitor, single point]
CC1CCCNC1 (stereo not given)	Potency	[1]	inconclusive: 53.3 µM [activator, partial curve, poor fit]
CC1=CC(=O)c2ccccc2C1=O	Potency	[1]	inconclusive: 24.3 µM [activator]
same	Potency	[2]	inconclusive: 11 µM [inhibitor, partial curve]
c1ccc(OCCOc2ccccc2)cc1	Potency	[1]	active: 61.1 µM and active: 24.3 µM
CC(=O)c1ccc(S(=O)(=O)NC(=O)NC2CCCCC2)cc1	Potency	[1]	inactive
same	Potency	[2]	inconclusive: 43.6 µM [inhibitor, single point]
CN(C)c1cccc(O)c1	Potency	[1]	active: 49.3 µM and active: 54.5 µM
